# From the supplement of paper PMC12819154, “High-throughput peptide-centric local stability assay extends protein–ligand identification to membrane proteins, tissues and bacteria” (Nature Structural & Molecular Biology, 2025)
# Chains of the proteins cited; added tags and fusions are not shown. Lines headed by an entry give the natural chain unless they say otherwise; changes in a name come on top.
# UniProt P24666: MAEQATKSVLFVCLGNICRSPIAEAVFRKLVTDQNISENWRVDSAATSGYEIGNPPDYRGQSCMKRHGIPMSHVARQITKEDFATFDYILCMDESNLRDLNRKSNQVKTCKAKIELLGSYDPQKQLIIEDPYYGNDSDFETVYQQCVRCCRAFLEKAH
# UniProt P26640: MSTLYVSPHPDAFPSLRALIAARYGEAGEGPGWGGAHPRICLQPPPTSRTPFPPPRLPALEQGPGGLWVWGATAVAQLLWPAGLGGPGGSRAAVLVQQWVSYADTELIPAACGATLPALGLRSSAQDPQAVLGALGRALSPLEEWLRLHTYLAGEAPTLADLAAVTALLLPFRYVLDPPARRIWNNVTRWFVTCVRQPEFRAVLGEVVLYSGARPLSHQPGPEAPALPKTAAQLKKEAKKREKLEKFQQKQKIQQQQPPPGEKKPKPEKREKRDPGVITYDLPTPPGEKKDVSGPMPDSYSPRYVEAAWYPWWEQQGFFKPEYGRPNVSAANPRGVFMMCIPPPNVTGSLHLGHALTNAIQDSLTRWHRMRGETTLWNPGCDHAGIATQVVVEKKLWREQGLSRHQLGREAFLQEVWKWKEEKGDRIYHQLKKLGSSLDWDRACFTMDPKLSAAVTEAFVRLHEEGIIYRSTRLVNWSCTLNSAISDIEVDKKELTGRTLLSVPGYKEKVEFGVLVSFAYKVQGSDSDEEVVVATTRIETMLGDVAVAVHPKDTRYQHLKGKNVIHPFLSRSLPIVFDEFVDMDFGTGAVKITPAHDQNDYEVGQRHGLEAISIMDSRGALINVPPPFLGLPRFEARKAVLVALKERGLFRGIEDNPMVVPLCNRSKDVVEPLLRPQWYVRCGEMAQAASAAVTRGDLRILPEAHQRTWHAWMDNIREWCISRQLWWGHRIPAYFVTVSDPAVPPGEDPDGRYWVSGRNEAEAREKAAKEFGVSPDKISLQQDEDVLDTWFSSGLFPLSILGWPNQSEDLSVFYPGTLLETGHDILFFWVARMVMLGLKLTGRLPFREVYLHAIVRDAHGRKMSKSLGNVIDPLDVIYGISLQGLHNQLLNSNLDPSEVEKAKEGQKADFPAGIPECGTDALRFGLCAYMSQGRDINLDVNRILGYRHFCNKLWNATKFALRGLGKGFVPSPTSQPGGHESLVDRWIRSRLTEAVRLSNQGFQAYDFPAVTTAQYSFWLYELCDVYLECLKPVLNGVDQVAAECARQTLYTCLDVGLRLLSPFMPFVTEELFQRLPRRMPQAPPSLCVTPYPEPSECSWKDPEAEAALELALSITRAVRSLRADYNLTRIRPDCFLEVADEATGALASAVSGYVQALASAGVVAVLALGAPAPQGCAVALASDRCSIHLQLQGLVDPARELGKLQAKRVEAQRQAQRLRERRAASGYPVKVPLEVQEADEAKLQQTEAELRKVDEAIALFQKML
# UniProt P17706: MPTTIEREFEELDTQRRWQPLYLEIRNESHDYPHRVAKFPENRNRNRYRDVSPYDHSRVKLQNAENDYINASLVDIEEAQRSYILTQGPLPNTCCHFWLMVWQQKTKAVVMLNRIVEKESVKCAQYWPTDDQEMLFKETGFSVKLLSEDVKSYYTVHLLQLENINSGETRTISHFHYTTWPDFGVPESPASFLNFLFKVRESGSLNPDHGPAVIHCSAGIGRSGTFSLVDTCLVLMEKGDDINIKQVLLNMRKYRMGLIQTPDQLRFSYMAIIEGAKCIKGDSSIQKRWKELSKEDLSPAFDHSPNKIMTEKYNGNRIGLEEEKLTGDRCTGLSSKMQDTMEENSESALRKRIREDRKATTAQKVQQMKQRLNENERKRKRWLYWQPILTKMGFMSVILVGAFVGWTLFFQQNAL
# UniProt P23497: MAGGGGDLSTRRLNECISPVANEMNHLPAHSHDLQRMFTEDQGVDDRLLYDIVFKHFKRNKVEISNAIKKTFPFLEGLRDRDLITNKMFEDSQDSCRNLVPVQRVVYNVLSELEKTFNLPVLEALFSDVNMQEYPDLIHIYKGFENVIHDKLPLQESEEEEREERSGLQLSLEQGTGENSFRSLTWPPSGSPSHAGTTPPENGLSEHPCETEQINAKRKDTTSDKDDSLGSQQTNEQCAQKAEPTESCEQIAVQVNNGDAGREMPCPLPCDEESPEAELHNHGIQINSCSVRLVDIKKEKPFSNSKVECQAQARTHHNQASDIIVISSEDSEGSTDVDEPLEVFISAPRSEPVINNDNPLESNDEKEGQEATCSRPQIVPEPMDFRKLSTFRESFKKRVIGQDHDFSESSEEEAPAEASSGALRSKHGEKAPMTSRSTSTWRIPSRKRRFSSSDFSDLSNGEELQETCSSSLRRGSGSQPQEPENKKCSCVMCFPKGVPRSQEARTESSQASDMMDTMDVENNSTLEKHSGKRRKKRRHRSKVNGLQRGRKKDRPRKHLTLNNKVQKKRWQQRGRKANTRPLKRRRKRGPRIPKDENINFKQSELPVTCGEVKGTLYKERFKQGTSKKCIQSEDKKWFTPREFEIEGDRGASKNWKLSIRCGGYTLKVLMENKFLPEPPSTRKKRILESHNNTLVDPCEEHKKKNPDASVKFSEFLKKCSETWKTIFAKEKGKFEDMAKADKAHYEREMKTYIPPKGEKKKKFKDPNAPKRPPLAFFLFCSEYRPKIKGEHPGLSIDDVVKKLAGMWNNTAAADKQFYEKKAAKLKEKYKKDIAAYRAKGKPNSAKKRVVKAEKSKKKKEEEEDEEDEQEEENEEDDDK
# UniProt P20585: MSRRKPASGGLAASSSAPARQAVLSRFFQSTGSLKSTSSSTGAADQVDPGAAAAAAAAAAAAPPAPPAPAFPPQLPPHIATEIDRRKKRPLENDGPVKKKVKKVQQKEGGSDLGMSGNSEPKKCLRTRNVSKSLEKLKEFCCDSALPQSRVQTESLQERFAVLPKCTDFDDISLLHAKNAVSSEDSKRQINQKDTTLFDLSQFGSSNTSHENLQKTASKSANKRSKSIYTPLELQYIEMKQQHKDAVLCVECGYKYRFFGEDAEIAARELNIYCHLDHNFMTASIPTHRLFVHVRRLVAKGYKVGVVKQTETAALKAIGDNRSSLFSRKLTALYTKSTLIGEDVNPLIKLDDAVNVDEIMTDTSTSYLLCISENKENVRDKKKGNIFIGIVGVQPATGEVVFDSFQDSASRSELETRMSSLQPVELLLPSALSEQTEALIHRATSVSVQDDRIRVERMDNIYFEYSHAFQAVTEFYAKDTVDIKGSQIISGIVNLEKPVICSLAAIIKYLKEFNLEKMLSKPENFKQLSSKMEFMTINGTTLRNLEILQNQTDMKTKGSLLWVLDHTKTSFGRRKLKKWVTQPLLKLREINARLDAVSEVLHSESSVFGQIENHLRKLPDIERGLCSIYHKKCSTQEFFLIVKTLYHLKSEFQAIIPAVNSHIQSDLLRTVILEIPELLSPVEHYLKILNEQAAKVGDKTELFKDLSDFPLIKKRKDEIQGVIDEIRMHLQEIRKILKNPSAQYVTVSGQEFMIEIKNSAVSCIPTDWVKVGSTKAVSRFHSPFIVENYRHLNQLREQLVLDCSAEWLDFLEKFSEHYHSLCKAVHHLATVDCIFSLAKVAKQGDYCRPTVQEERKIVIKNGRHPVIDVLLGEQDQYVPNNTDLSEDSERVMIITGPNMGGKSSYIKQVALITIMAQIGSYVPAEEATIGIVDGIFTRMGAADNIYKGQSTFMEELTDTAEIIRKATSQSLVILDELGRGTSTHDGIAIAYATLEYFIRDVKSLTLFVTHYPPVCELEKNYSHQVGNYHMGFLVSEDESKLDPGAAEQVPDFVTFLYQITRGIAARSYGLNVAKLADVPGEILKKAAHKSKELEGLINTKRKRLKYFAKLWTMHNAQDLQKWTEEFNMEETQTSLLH
# UniProt P19404, whole entry: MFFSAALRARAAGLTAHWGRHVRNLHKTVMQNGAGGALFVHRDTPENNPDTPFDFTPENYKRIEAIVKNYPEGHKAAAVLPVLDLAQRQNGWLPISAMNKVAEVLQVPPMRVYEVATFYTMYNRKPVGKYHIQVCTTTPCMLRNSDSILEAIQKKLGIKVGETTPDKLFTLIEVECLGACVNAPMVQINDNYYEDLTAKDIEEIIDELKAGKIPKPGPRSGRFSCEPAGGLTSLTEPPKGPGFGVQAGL
# UniProt P18440: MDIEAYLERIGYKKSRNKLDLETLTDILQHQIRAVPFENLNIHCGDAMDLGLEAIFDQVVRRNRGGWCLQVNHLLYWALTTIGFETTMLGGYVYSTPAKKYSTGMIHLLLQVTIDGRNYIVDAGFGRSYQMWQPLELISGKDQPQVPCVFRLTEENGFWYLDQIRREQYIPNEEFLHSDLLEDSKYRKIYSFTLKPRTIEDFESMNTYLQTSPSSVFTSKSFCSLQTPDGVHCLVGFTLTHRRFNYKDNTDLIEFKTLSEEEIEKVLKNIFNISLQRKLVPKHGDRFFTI
# UniProt P14136, whole entry: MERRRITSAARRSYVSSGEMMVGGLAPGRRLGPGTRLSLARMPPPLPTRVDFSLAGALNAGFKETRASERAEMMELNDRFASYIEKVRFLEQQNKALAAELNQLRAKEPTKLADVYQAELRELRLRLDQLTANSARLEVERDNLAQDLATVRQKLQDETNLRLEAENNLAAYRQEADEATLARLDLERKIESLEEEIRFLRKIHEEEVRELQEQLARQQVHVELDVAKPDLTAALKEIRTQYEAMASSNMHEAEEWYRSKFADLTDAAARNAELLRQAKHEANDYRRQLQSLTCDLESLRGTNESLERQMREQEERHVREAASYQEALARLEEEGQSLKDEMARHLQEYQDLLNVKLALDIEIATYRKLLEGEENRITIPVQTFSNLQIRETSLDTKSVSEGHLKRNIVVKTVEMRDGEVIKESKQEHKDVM
# UniProt P27694, whole entry: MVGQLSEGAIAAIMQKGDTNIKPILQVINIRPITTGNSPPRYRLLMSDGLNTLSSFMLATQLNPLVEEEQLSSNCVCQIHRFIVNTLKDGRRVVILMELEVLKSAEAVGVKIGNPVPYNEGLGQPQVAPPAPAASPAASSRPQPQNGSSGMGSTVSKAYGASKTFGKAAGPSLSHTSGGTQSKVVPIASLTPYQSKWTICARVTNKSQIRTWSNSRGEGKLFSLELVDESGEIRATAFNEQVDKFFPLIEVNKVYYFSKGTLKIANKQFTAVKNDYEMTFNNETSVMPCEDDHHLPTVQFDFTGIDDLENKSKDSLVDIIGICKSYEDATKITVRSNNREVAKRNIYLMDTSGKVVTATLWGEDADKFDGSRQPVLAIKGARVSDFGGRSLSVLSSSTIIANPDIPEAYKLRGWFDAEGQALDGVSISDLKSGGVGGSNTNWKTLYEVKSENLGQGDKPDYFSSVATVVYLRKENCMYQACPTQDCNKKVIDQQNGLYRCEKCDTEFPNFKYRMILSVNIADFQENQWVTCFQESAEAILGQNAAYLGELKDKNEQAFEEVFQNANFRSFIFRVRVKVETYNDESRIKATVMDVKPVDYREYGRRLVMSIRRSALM
# UniProt P13797: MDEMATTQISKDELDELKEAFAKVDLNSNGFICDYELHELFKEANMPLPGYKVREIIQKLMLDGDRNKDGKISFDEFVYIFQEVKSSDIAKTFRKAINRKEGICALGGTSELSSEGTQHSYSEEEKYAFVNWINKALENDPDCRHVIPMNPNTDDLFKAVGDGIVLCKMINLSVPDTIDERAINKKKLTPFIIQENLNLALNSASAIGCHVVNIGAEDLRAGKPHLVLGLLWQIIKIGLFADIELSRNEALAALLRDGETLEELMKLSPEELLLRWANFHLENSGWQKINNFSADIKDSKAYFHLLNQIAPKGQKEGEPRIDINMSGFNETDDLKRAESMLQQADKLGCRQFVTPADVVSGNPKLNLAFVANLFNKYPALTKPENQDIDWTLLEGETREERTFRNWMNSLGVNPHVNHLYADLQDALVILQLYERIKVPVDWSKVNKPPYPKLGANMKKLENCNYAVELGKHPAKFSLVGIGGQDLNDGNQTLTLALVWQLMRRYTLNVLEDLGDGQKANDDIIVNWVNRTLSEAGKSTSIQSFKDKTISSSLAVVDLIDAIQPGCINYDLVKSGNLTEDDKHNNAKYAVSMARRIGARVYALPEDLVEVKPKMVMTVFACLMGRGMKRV
# The other results are listed elsewhere or left out. Most values lie at the level of the controls, where differences are scatter.
# Compound: CN[C@@H]1C[C@H]2O[C@@](C)([C@@H]1OC)n1c3ccccc3c3c4c(c5c6ccccc6n2c5c31)C(=O)NC4 [staurosporine]
# Assay: log2 fold change of tryptic peptide abundance, ligand vs vehicle (limited proteolysis) (log2 ratio); higher = more trypsin-susceptible (destabilized)
# Settings: ligand concentration: 20 uM; sample: K562 cleared lysate; digestion: 4 min, 22 C (HT-PELSA RT4min, Orbitrap Astral)
row,Target,log2 fold change
1,"ACP1 (peptide sequence: HGIPMSHVAR, peptide start residue: 67) (UniProt P24666)",0.195
2,"VARS (peptide sequence: LGSSLDWDR, peptide start residue: 434) (UniProt P26640)",0.249
3,"PTPN2 (peptide sequence: MQDTMEENSESALRK, peptide start residue: 337) (UniProt P17706)",-0.487
4,"SP100 (peptide sequence: NKVEISNAIKK, peptide start residue: 60) (UniProt P23497)",0.394
5,"MSH3 (peptide sequence: FHSPFIVENYR, peptide start residue: 780) (UniProt P20585)",0.35
6,"NDUFV2 (peptide sequence: KPVGKYHIQVCTTTPCMLR, peptide start residue: 125) (UniProt P19404)",0.589
7,"NAT1 (peptide sequence: NKLDLETLTDILQHQIR, peptide start residue: 17) (UniProt P18440)",0.947
8,"GFAP (peptide sequence: GTNESLER, peptide start residue: 335) (UniProt P14136)",-0.142
9,"RPA1 (peptide sequence: AAGPSLSHTSGGTQSK, peptide start residue: 168) (UniProt P27694)",0.493
10,"PLS3 (peptide sequence: ALENDPDCR, peptide start residue: 133) (UniProt P13797)",0.217

# Given bar-delimited: part of the list above
row | Target | log2 fold change
9 | RPA1 (peptide sequence: AAGPSLSHTSGGTQSK, peptide start residue: 168) (UniProt P27694) | 0.493
10 | PLS3 (peptide sequence: ALENDPDCR, peptide start residue: 133) (UniProt P13797) | 0.217
